Source: PMC7819943, “Rice protein-binding microarrays: a tool to detect cis-acting elements near promoter regions in rice”
The other results are listed elsewhere or left out.

These sequences were tested against T1, OsSMF1 (Oryza sativa, UniProt Q6ZLB0 1-436) (assay: protein-binding microarray (RPBM); PBS, 2% BSA, 51.3 ng/ul salmon testes DNA, 50 uM zinc acetate, 200 nM TF, 25 C, 1 h; high values mean tight binding). Settings: protein: recombinant; tags: N-terminal polyhistidine and DsRed monomer fusion (pET32a); chain copies: 2; label: CyDye5-dUTP incorporated in the synthesized complementary strand; 3' TTTTT single-stranded linker to array surface; dsDNA, one strand shown.
T1 sequence: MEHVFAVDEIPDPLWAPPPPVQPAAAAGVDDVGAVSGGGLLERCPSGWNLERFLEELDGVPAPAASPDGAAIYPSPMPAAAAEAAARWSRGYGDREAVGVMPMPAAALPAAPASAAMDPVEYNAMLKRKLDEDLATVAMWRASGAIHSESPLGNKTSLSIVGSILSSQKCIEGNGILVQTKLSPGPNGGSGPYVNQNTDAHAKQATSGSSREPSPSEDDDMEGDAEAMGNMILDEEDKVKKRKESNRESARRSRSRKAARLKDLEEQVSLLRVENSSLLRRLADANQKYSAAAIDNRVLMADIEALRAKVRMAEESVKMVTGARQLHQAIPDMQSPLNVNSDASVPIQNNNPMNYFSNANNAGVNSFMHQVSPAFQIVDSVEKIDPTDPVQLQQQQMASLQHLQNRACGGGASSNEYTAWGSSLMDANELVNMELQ
Summary of the method: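 Binding signal is defined as the fluorescence intensity of each feature in arbitrary units, read on an Axon 4000B scanner. Transcription factors with N-terminal polyhistidine and DsRed fusions came from E. coli BL21-CodonPlus and were purified on Ni–NTA. They were incubated at 200 nM for 1 h at 25 °C on a custom Agilent array that had been made double-stranded with Cy5-dUTP, with 50 µM zinc acetate present, and the array was washed.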

Row | Sequence | binding signal
1 | CCACCAGCCCGGTGGGATCCCGCCACGTCAGCGTGACCCGCGGAGTCACCTAGTGCAG | 22600 fluorescence intensity (a.u.)
2 | TATGACCTTGAGTTACCGAAGTCTGCGTCGTTTTGTACTACGGAGTCACCTAGTGCAG | 3210 fluorescence intensity (a.u.)
3 | CCAACTCCCTTTCGACATCGATTCTTCTTATCCGCCTCCCCGGAGTCACCTAGTGCAG | 3250 fluorescence intensity (a.u.)
4 | CTTGACTCTTGAGCGAAGAATACGGTCACATGCATATTTGCGGAGTCACCTAGTGCAG | 3950 fluorescence intensity (a.u.)
5 | GATAACATGGCCTAGATGGATGAGTTAAACCAAAGCACCTCGGAGTCACCTAGTGCAG | 3690 fluorescence intensity (a.u.)
6 | TACTGCTGACACGTGGACGGCACTCCCAGATATTTGCGCTCGGAGTCACCTAGTGCAG | 15800 fluorescence intensity (a.u.)
7 | CGGGGTTGTCTTCACCTGCGACGCGGTGGTGCACGGTGGGCGGAGTCACCTAGTGCAG | 3770 fluorescence intensity (a.u.)
8 | TTATATATAGGGGAGGTTTTGTTTACCACGGTGTGCTTTGCGGAGTCACCTAGTGCAG | 3960 fluorescence intensity (a.u.)
9 | TCCTCTCCGACTCCGAGGCCACCGTGTGCATGCTCATGGACGGAGTCACCTAGTGCAG | 4120 fluorescence intensity (a.u.)
10 | GACGCTGACGACTTCACTCCACTCCACGCCCTCCTTCCCCCGGAGTCACCTAGTGCAG | 3870 fluorescence intensity (a.u.)
11 | AACAGCCACGTCCCGCCGCGCGTCGCACGTCCGCGCCACGCGGAGTCACCTAGTGCAG | 6260 fluorescence intensity (a.u.)
12 | TTCTCCTCTTCTCGCGCGGCTCGTTATATTCTCGTCATCACGGAGTCACCTAGTGCAG | 4730 fluorescence intensity (a.u.)
13 | CCGTCGTCGCTGGGATGCGGCGTTGACATGGACGAGTTCGCGGAGTCACCTAGTGCAG | 3530 fluorescence intensity (a.u.)
14 | ACCATTGCGTTGGCCATGATGACAGTCACCTCCATACCCGCGGAGTCACCTAGTGCAG | 4120 fluorescence intensity (a.u.)
15 | AAACAGCACGAATTCAATGTACAAATGATGTCATATAGTGCGGAGTCACCTAGTGCAG | 7660 fluorescence intensity (a.u.)
16 | CCATTGTTGTCATGAAGAATTGATATCTCAAGCAACCAAACGGAGTCACCTAGTGCAG | 36000 fluorescence intensity (a.u.)
17 | AATTATATAGATAAGTGCAGTACACGTAAGTACGTGACAGCGGAGTCACCTAGTGCAG | 6720 fluorescence intensity (a.u.)
18 | TGCGGCGGTTGGAGCGGGTGCTGCAGCGGCGAACACGACGCGGAGTCACCTAGTGCAG | 3140 fluorescence intensity (a.u.)
19 | GTTTCTTCTCCTTCTCCTCGTCGGCATCCTGGTCATCGTCCGGAGTCACCTAGTGCAG | 7800 fluorescence intensity (a.u.)
20 | TTTGCGAGTAAACTATTTACTCTTGGTGATGTGGATAAATCGGAGTCACCTAGTGCAG | 6810 fluorescence intensity (a.u.)
21 | GGCGGCGGTGATTCGGGGATGCGGCGCGGCGGGGAGGAGGCGGAGTCACCTAGTGCAG | 3860 fluorescence intensity (a.u.)

Shown as tab-separated lines: part of the list above
Row	Sequence	binding signal
13	CCGTCGTCGCTGGGATGCGGCGTTGACATGGACGAGTTCGCGGAGTCACCTAGTGCAG	3530 fluorescence intensity (a.u.)
20	TTTGCGAGTAAACTATTTACTCTTGGTGATGTGGATAAATCGGAGTCACCTAGTGCAG	6810 fluorescence intensity (a.u.)

Next entries

Row | Sequence | binding signal
22 | GCCGTGCCGCCACGTTCCACGCCAACCTCGCCGGCCGCGCCGGAGTCACCTAGTGCAG | 3360 fluorescence intensity (a.u.)
23 | CCAAGGTAAAATATGATCTAAATCTACATTTTACAAACTTCGGAGTCACCTAGTGCAG | 3240 fluorescence intensity (a.u.)
24 | TTATACATCATCAGAGGAAATGCTGACTCCATTATTTGTGCGGAGTCACCTAGTGCAG | 3870 fluorescence intensity (a.u.)
25 | TTGGAAGCAAATAAAAGTACACGTCATGTATCCAAATATACGGAGTCACCTAGTGCAG | 4730 fluorescence intensity (a.u.)
26 | CGGACCACACACTTACACGTGGGTCCCAGCTAAACCACAGCGGAGTCACCTAGTGCAG | 5850 fluorescence intensity (a.u.)
27 | ACTAAATCCTCAACCACCTCATATGTTTATGTACCATCGACGGAGTCACCTAGTGCAG | 3510 fluorescence intensity (a.u.)
28 | TCCATTCCAGCCGCAGCGCGCGTTGACCCACCGCAATGCACGGAGTCACCTAGTGCAG | 3250 fluorescence intensity (a.u.)
29 | GAGAGCATGCACGCGCTGTCGTGGTGCCTCTCCAACGTGGCGGAGTCACCTAGTGCAG | 7770 fluorescence intensity (a.u.)
30 | ACCTCACGCCCCTCGTGCCGCATGTGCATACATACGTCTGCGGAGTCACCTAGTGCAG | 4690 fluorescence intensity (a.u.)
31 | CGGCCGGCGAGATAAGATAAGCAGCTAGCAGGGAGTGGCCCGGAGTCACCTAGTGCAG | 3280 fluorescence intensity (a.u.)
32 | TGTACACGTCATCTAAATATGACGTGGAAAGATTATGCATCGGAGTCACCTAGTGCAG | 27000 fluorescence intensity (a.u.)
33 | TCAACCGTATCTGACGCCTGCATTTCCTCTACCAGCCAAGCGGAGTCACCTAGTGCAG | 4010 fluorescence intensity (a.u.)
34 | TCGTTCGATTTCTTGGTCCATTCCTTGTCCGTAGTGTTCTCGGAGTCACCTAGTGCAG | 3180 fluorescence intensity (a.u.)
35 | TTCGACGTATTGCCCTCGTGCGGACCGCACCGTTTCCTTGCGGAGTCACCTAGTGCAG | 18700 fluorescence intensity (a.u.)
36 | GGCCCTAGCAACTTGCAAGTGGGGCGCTGACACTGCAACACGGAGTCACCTAGTGCAG | 5640 fluorescence intensity (a.u.)
37 | ATTTCATTTCACTCATCCCACATGACACATACGCGTAGGTCGGAGTCACCTAGTGCAG | 3670 fluorescence intensity (a.u.)
38 | TTGCTAATTCCACACGTCAGCTAGGACAAGTGAGCATCGCCGGAGTCACCTAGTGCAG | 13100 fluorescence intensity (a.u.)
39 | TACGGAGGATACGTACGTGACGCGTCGGAAACCTTACGGCCGGAGTCACCTAGTGCAG | 7710 fluorescence intensity (a.u.)
40 | ATTTTCTATAATTACGTATATGCCCCACACGAACAGTATTCGGAGTCACCTAGTGCAG | 3700 fluorescence intensity (a.u.)
41 | TTTTGCGGACTTGCTCTGATTTTGGGAAATGGAAAGAGGACGGAGTCACCTAGTGCAG | 25200 fluorescence intensity (a.u.)
42 | ATTGTTAACTCATGTTGTTGCTCAAATAAACAAAAGTTAACGGAGTCACCTAGTGCAG | 28500 fluorescence intensity (a.u.)
